# Source: US20260028421A1
# No constants are given. Whether binding was seen depends on the method and setting. Binding can be weak; no strength is given.
# Target: cynoGUCY2C ECD-His (ACRO #GUC-C52H6) (cynomolgus monkey)
# Assay: screening of chimeric antibodies, SPR and cell binding
row,Binder,binding
1,"P1-D9 CHI (antibody, human IgG1, kappa, V domains shown) VH: EVQLVESGGGLVKPGGSLKLSCAASGFSFSDYGMHWVRQAPEKGLEWIAHISSGSSTIYYADTVKGRFTISRDNAKNTLFLQMTSLRSEDTAMYYCARSRNYYGSRIFDYWGQGTTLTVSS VL: QIVLTQSPARMSASPGEKVTMTCSASSSVSYMYWYQQKPRSSPKPWIYLTSNLASGVPARFSGSGSGTSYSLTISSMEAEDAATYYCQQWSSNPPTFGSGTKLEIKR",binds
2,"P1-F10 CHI (antibody, human IgG1, kappa, V domains shown) VH: EVQLVESGGGLVKPGGSLKLSCAASGFAFSDYGMHWVRQAPEKGLEWVAHISSGSSTIYYADTVKGRFTISRDNVKNTLFLQMTSLRSEDTAMYYCARSRNYYGSRVFDYWGQGTPLTVSS VL: QIVLTQSPALMSVSPGEKVTMTCSASSSVNYMYWYQQKPRSSPKPWIYLTSNLASGVPARFSGSGSGTSYSLTISSMEAEDAATYYCQQWNSNPPTFGSGTKLEIKR",binds
3,"P1-D2 CHI (antibody, human IgG1, kappa, V domains shown) VH: EFQLQQSGPELVKPGASVKISCKASGYSFTDHNMNWVKQSNGKSLEWIGVINPKYGTISNNQKFKGKATLTVDQSSSTAYMQLNSLTAEDSAVYYCARDDYPNYFDYWGQGTTLTVSS VL: QIVLTQSPAIMSASPGEKVTISCSANSSVNYIYWYQQKPGSSPKPWIYRTSNLASGVPARFSGSGSGTSYSLTISSMEAEDAATYYCQQYHSFPPTFGGGTKLEIKR",binds
4,"P1-C6 CHI (antibody, human IgG1, kappa, V domains shown) VH: QVQLQQSGAELARPGASVKLSCKASGYTFTSYGITWVKRRTGQGLGWIGEIYPRSGNTYYNEKFKGKATLTADKSSSTAYMELRSLTSEDSAVYFCARAITTVVGDWYFDVWGTGTTVTVSS VL: DIVLTQSPASLAMSLGKRATISCRASESVSLIGTNLIHWYQQKPGQPPKLLIHHASNLEAGVPARFSGSGSRTDFTLTIDPVEEDDVAIYYCLQSRKIRTFGGGTKLEIKR",binds

# The next lines start with the values.
row,binding,Binder
1,binds,"P3-D9 CHI (antibody, human IgG1, kappa, V domains shown) VH: EVQLVESGGGLVKPGGSLKLSCAASGFAFSDYGMHWVRQAPEKGLEWVAHISSGSSTIYYGDTVKGRFTISRDNAKNTLFLQMTSLRSEDTAMYYCTRSRNYYGSRVFDYWGQGTTLTVSS VL: QIVLTQSPALMSVSPGEKVTMTCSASSSVSYMYWYQQKPRSSPKPWIYLTSSLASGVPARFSGSGSGTSYSLTINNVEAEDAATYYCQQWSSNPPTFGSGTKVEIKR"
2,binds,"P3-B4 CHI (antibody, human IgG1, kappa, V domains shown) VH: QIQLVQSGPELKKPGEIVKISCKASGYTFTTYGMSWVKQAPGKGLKWMGWINTYSGVPTYADDFKGRFAFSLETSASTAYLQINNLKNEDTATYFCARRAGSSLYYYAMDYWGQGTSVTVSS VL: QIVLTQSPAIMSASPGEKVTMTCSASSSVSYMLWYQQKSGTSPKRWIYDTSKLASGVPARFSGSGSGTSYSLTISSMEAEDAATYYCQQWSSNPPTFGGGTKLEIKR"
3,binds,"P1-D3 CHI (antibody, human IgG1, kappa, V domains shown) VH: QIQLIQSGPELKKPGETVKISCKASGYTFTTYGMSWVKQAPGKGLKWMGWINTYSGVPTYADDFKGRFAFSLETSANTAYLQINNLKNEDTATYFCARRGYSNLYYYALDYWGQGASVTVSS VL: QIVLTQSPAIMSASPGEKVTMTCSASSSVNYMHWYQQKSGTSPKRWIYDTSKLASGVPTRFSGSGSGTSYSLTISSMEAEDAATYFCQQWSSNPSTFGGGTKLEIKR"
4,binds,"P3-E4 CHI (antibody, human IgG1, kappa, V domains shown) VH: QVQLQQPGAELVMPGAAVKLSCKASGYTFINYWMHWLKQRPGQGLEWIGEIDPSDGYTDYNQKFKGKATLTVDKSSSTAYMQLSSLTSEDSAVYYCAISLRGPITFGPFPYWGQGTLVTVSS VL: DIVLTQSPASLAVSLGQRATISCRASESVSIHGTHLMHWYQQKPGQPPKLLIYAASNLESGVPARFSGSGSETDFTLNIHPVAEEDAATYFCQHSIEDPRTFGGGTKLEIKR"
5,binds,"P3-C7 CHI (antibody, human IgG1, kappa, V domains shown) VH: EVQLQQSGPVLLKPGASVKMSCKASGYTFTDHYIHWVKLSHGKSLEWIGVINPYNDGATYNQKFKGKATLTVDKSSSTAYMELNSLTSEDSAVYYCARPPRAYGNYAGYWGQGTTLTVSS VL: DVVMTQTPLSLPVSLGDQASISCRSSQSLVHSNGNTYLHWYLQKPGQSPKLLIYKVSNRFSGVPDRFIGSGSRTDFTLKISRVEAEDLGVYFCSQSTHVPYTFGGGTRLEIKR"
